# The supplement of paper PMC9135407
# Values joined by “and” are separate entries in the source; they are usually repeats but may differ in a detail not shown here. Identical values can stand only once. Counter-ions that a name gives are not always drawn. ± gives the standard deviation of the averaged measurements. The list shows a part of the results. Baselines shift from plate to plate; read single values as rough.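 Assay uses culture-activated primary human stellate myofibroblasts; lipid droplet recovery indicates inactivation. Measured: proportion of Hoechst-counted cells over a plate-specific Bodipy cutoff, duplicate wells, DMSO and nortriptyline as per-plate negative and positive controls. A hit scores, control-normalized, above the plate's top-tenth-percentile nortriptyline wells or ranks among its three best wells. Final well concentrations not reported.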
# Test system: primary human hepatic stellate cells (donor 1)
# Assay: percent Bodipy-positive cells; higher = more lipid droplet accumulation
# Settings: 48 h
# [1] = library stock concentration: 80 uM
# [2] = library stock concentration: 400 uM
# [3] = library stock concentration: 2 mM
# [4] = library stock concentration: 3.33 mM
# [5] = library stock concentration: 10 mM
# [6] = library stock concentration: 1 mM
# [7] = library stock concentration: 4.4 mM
smiles,measurement,setting,value
CC1=C(C(=O)Nc2cc3cn[nH]c3cc2F)C(c2ccc(C(F)(F)F)cc2)CC(=O)N1 (stereo not drawn),percent Bodipy-positive cells,[1],5.7 ± 3.2%
same,percent Bodipy-positive cells,[2],7.03% and 16.2%
same,percent Bodipy-positive cells,[3],6.64% and 15.2%
same,percent Bodipy-positive cells,[4],5.1 ± 1.7%
CNC(=O)c1ccccc1Nc1nc(Nc2ccc(N3CCOCC3)cc2OC)ncc1Cl,percent Bodipy-positive cells,[1],10.4 ± 2.6%
same,percent Bodipy-positive cells,[2],7.59 ± 1.7%
same,percent Bodipy-positive cells,[3],5.99 ± 3.4%
same,percent Bodipy-positive cells,[4],6.16 ± 2.5%
same,percent Bodipy-positive cells,[5],17.2% and 11.7%
CCCCC[C@H](O)/C=C/[C@@H]1[C@@H](C/C=C\CCCC(=O)OCC(O)CO)[C@@H](O)C[C@H]1O (stereo partly drawn) [Prostaglandin F2.alpha.-1-glyceryl ester],percent Bodipy-positive cells,[6],12.8 ± 6.8%
C[C@@H](N)C1CCC(C(=O)Nc2ccncc2)CC1 (stereo partly drawn),percent Bodipy-positive cells,[4],11.9 ± 5.2%
COc1cc(/C=C/c2ccc(O)cc2)cc(OC)c1,percent Bodipy-positive cells,[5],11.5 ± 1.2%
CCOC(=O)c1ncn2c1CN(C)C(=O)c1cc(F)ccc1-2 [Flumazenil],percent Bodipy-positive cells,[4],32.9 ± 21%
same,percent Bodipy-positive cells,library stock concentration: 6.6 mM,6.66 ± 0.75%
CCOC(=O)c1ncn2c1CN(C)C(=O)c1cc(F)ccc1-2,percent Bodipy-positive cells,[5],9.51 ± 2.7%
O=NN(CCCl)C(=O)NCCCl [Carmustine],percent Bodipy-positive cells,library stock concentration: 9.3 mM,9.36 ± 2.6%
same,percent Bodipy-positive cells,[5],35.7 ± 14%
O=C(O)C(Cc1c[nH]c2ccccc12)N1C(=O)c2ccccc2C1=O (stereo not drawn),percent Bodipy-positive cells,[1],36.9 ± 0.47%
same,percent Bodipy-positive cells,[2],44.4 ± 13%
same,percent Bodipy-positive cells,[3],44.1 ± 3.4%
same,percent Bodipy-positive cells,[4],8.54 ± 0.47%
CCOc1cc(CC(=O)N[C@@H](CC(C)C)c2ccccc2N2CCCCC2)ccc1C(=O)O [Repaglinide],percent Bodipy-positive cells,,5.39 ± 1.6%
same,percent Bodipy-positive cells,[4],11.59 ± 0.098%
same,percent Bodipy-positive cells,[7],0.598 ± 0.23%
same,percent Bodipy-positive cells,[5],19.6% and 6.06%
CCOc1cc(CC(=O)N[C@@H](CC(C)C)c2ccccc2N2CCCCC2)ccc1C(=O)O,percent Bodipy-positive cells,[5],10.2 ± 5.5%
C[C@@H](Oc1cc(-n2cnc3ccc(CN4CCN(C)CC4)cc32)sc1C(N)=O)c1ccccc1C(F)(F)F,percent Bodipy-positive cells,[4],95.6 ± 2.2%
CCOC(=O)C1=C(C)NC(C)=C(C(=O)OCC)C1c1ccccc1/C=C/C(=O)OC(C)(C)C [Lacidipine],percent Bodipy-positive cells,[4],31.7 ± 4.7%
same,percent Bodipy-positive cells,[7],30.62 ± 0.14%
same,percent Bodipy-positive cells,[5],69.4 ± 5.3%
CCOC(=O)C1=C(C)NC(C)=C(C(=O)OCC)C1c1ccccc1/C=C/C(=O)OC(C)(C)C,percent Bodipy-positive cells,[5],47.9 ± 4.3%
Cn1c(=O)n(-c2ccc(C(C)(C)C#N)cc2)c2c3cc(-c4cnc5ccccc5c4)ccc3ncc21,percent Bodipy-positive cells,[1],4.79 ± 1.1%
same,percent Bodipy-positive cells,[2],5.7 ± 1.6%
same,percent Bodipy-positive cells,[3],8.14 ± 3.5%
same,percent Bodipy-positive cells,[5],13.6 ± 2.8%
CCCCC(C)(O)CC=CC1C(O)CC(=O)C1CCCCCCC(=O)OC (stereo not drawn) [8-iso Misoprostol],percent Bodipy-positive cells,[6],11.8 ± 0.68%
C[C@H](NC[C@H](O)CP(=O)(O)CC1CCCCC1)c1ccc(Cl)c(Cl)c1,percent Bodipy-positive cells,[5],7.55 ± 2%
CC(C)CCN1C(=O)N(CCN(C)C)C(=O)C12CCN(Cc1cn(C)c3ccccc13)CC2,percent Bodipy-positive cells,[5],80.8 ± 0.97%
CC(C)n1cnc2c(NCc3ccccc3)nc(NCCO)nc21 [N9-Isopropylolomoucine],percent Bodipy-positive cells,library stock concentration: 15.3 mM,23.8 ± 8.6%
O=S(=O)(c1ccccc1)N(CC(F)(F)F)c1ccc(C(O)(C(F)(F)F)C(F)(F)F)cc1,percent Bodipy-positive cells,[6],18 ± 2.6%
same,percent Bodipy-positive cells,[4],19.6 ± 0.5%
Cc1occc(=O)c1O,percent Bodipy-positive cells,[5],6.22 ± 0.14%
NC(CCCP(=O)(O)O)C(=O)O (stereo not drawn),percent Bodipy-positive cells,[5],33.5 ± 6.2%
NC(CCCP(=O)(O)O)C(=O)O (stereo not drawn) [D(-)-2-Amino-5-phosphonopentanoic acid],percent Bodipy-positive cells,[5],26.6 ± 5.7%
"CNC(=O)c1cc(Oc2ccc(NC(=O)Nc3ccc(Cl)c(C(F)(F)F)c3)cc2)ccn1 [Sorafenib (Nexavar, BAY43-9006) (10 mM)]",percent Bodipy-positive cells,[5],99.71 ± 0.41%
CCCCN(CCCC)CCC(O)c1cc2c(Cl)cc(Cl)cc2c2cc(C(F)(F)F)ccc12 (stereo not drawn) [Halofantrine hydrochloride],percent Bodipy-positive cells,,35.5 ± 7.5%
C#C[C@]1(O)CC[C@H]2[C@@H]3CCc4cc(O)ccc4[C@H]3CC[C@@]21C,percent Bodipy-positive cells,[5],39.5 ± 7.1%
C#C[C@]1(O)CC[C@H]2[C@@H]3CCc4cc(O)ccc4[C@H]3CC[C@@]21C [Ethinyl estradiol],percent Bodipy-positive cells,library stock concentration: 6.7 mM,39.7 ± 4.6%
same,percent Bodipy-positive cells,[5],9.15 ± 2%
C#C[C@]1(O)CC[C@H]2[C@@H]3CCc4cc(O)ccc4[C@H]3CC[C@@]21C [Ethinyl Estradiol],percent Bodipy-positive cells,[4],8.32 ± 1.4%
same,percent Bodipy-positive cells,[5],50.6 ± 2%
"COc1cc(F)c(F)c(Nc2ccc(I)cc2F)c1NS(=O)(=O)C1(C[C@H](O)CO)CC1 [Refametinib (RDEA119, Bay 86-9766)]",percent Bodipy-positive cells,[4],7.46 ± 1.1%
same,percent Bodipy-positive cells,[5],26.4 ± 16%
CCCCCN(CCCCC)C(=O)C(CCC(=O)O)NC(=O)c1ccc(Cl)c(Cl)c1 (stereo not drawn) [Lorglumide],percent Bodipy-positive cells,[7],7.01 ± 2.3%
CCCCCN(CCCCC)C(=O)C(CCC(=O)O)NC(=O)c1ccc(Cl)c(Cl)c1 (stereo not drawn) [Lorglumide sodium],percent Bodipy-positive cells,[5],42 ± 3.5%
CCCCCN(CCCCC)C(=O)C(CCC(=O)O)NC(=O)c1ccc(Cl)c(Cl)c1 (stereo not drawn) [Lorglumide sodium salt],percent Bodipy-positive cells,,6.49 ± 3.2%
NC1CC1c1ccc(-c2cccc(O)c2)cc1 (stereo not drawn),percent Bodipy-positive cells,[4],48.5 ± 8.5%
same,percent Bodipy-positive cells,[5],72.14 ± 0.68%
